Measured values taken from the supplement of paper PMC12067093, “Discovery and optimisation of a covalent ligand for TRIM25 and its application to targeted protein ubiquitination” (Chemical Science, 2025).
The other results are listed elsewhere or left out.

Sequences of proteins named here, by UniProt entry; tags and fusion partners are left off. A change or cut given only in a name is not applied to a line headed by its entry.
UniProt Q14919: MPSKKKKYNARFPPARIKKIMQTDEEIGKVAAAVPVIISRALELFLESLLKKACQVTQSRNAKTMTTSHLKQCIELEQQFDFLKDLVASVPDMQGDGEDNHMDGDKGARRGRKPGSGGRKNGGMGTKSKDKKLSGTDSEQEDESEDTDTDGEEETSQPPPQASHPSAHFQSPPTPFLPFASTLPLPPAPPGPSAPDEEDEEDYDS
UniProt Q99704: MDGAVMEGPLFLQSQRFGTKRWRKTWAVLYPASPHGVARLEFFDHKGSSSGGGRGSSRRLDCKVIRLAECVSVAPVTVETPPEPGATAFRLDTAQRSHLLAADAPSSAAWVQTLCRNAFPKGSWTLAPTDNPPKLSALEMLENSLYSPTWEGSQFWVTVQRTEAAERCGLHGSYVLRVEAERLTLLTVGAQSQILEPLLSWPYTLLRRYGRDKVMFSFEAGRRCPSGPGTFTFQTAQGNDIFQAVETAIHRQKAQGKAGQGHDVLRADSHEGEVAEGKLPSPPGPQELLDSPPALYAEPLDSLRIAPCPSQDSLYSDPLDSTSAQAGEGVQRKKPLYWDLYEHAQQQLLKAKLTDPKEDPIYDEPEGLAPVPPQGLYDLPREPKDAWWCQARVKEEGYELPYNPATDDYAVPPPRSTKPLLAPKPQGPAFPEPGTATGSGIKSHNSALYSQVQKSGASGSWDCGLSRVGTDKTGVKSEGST
UniProt Q14204, whole entry, looked up: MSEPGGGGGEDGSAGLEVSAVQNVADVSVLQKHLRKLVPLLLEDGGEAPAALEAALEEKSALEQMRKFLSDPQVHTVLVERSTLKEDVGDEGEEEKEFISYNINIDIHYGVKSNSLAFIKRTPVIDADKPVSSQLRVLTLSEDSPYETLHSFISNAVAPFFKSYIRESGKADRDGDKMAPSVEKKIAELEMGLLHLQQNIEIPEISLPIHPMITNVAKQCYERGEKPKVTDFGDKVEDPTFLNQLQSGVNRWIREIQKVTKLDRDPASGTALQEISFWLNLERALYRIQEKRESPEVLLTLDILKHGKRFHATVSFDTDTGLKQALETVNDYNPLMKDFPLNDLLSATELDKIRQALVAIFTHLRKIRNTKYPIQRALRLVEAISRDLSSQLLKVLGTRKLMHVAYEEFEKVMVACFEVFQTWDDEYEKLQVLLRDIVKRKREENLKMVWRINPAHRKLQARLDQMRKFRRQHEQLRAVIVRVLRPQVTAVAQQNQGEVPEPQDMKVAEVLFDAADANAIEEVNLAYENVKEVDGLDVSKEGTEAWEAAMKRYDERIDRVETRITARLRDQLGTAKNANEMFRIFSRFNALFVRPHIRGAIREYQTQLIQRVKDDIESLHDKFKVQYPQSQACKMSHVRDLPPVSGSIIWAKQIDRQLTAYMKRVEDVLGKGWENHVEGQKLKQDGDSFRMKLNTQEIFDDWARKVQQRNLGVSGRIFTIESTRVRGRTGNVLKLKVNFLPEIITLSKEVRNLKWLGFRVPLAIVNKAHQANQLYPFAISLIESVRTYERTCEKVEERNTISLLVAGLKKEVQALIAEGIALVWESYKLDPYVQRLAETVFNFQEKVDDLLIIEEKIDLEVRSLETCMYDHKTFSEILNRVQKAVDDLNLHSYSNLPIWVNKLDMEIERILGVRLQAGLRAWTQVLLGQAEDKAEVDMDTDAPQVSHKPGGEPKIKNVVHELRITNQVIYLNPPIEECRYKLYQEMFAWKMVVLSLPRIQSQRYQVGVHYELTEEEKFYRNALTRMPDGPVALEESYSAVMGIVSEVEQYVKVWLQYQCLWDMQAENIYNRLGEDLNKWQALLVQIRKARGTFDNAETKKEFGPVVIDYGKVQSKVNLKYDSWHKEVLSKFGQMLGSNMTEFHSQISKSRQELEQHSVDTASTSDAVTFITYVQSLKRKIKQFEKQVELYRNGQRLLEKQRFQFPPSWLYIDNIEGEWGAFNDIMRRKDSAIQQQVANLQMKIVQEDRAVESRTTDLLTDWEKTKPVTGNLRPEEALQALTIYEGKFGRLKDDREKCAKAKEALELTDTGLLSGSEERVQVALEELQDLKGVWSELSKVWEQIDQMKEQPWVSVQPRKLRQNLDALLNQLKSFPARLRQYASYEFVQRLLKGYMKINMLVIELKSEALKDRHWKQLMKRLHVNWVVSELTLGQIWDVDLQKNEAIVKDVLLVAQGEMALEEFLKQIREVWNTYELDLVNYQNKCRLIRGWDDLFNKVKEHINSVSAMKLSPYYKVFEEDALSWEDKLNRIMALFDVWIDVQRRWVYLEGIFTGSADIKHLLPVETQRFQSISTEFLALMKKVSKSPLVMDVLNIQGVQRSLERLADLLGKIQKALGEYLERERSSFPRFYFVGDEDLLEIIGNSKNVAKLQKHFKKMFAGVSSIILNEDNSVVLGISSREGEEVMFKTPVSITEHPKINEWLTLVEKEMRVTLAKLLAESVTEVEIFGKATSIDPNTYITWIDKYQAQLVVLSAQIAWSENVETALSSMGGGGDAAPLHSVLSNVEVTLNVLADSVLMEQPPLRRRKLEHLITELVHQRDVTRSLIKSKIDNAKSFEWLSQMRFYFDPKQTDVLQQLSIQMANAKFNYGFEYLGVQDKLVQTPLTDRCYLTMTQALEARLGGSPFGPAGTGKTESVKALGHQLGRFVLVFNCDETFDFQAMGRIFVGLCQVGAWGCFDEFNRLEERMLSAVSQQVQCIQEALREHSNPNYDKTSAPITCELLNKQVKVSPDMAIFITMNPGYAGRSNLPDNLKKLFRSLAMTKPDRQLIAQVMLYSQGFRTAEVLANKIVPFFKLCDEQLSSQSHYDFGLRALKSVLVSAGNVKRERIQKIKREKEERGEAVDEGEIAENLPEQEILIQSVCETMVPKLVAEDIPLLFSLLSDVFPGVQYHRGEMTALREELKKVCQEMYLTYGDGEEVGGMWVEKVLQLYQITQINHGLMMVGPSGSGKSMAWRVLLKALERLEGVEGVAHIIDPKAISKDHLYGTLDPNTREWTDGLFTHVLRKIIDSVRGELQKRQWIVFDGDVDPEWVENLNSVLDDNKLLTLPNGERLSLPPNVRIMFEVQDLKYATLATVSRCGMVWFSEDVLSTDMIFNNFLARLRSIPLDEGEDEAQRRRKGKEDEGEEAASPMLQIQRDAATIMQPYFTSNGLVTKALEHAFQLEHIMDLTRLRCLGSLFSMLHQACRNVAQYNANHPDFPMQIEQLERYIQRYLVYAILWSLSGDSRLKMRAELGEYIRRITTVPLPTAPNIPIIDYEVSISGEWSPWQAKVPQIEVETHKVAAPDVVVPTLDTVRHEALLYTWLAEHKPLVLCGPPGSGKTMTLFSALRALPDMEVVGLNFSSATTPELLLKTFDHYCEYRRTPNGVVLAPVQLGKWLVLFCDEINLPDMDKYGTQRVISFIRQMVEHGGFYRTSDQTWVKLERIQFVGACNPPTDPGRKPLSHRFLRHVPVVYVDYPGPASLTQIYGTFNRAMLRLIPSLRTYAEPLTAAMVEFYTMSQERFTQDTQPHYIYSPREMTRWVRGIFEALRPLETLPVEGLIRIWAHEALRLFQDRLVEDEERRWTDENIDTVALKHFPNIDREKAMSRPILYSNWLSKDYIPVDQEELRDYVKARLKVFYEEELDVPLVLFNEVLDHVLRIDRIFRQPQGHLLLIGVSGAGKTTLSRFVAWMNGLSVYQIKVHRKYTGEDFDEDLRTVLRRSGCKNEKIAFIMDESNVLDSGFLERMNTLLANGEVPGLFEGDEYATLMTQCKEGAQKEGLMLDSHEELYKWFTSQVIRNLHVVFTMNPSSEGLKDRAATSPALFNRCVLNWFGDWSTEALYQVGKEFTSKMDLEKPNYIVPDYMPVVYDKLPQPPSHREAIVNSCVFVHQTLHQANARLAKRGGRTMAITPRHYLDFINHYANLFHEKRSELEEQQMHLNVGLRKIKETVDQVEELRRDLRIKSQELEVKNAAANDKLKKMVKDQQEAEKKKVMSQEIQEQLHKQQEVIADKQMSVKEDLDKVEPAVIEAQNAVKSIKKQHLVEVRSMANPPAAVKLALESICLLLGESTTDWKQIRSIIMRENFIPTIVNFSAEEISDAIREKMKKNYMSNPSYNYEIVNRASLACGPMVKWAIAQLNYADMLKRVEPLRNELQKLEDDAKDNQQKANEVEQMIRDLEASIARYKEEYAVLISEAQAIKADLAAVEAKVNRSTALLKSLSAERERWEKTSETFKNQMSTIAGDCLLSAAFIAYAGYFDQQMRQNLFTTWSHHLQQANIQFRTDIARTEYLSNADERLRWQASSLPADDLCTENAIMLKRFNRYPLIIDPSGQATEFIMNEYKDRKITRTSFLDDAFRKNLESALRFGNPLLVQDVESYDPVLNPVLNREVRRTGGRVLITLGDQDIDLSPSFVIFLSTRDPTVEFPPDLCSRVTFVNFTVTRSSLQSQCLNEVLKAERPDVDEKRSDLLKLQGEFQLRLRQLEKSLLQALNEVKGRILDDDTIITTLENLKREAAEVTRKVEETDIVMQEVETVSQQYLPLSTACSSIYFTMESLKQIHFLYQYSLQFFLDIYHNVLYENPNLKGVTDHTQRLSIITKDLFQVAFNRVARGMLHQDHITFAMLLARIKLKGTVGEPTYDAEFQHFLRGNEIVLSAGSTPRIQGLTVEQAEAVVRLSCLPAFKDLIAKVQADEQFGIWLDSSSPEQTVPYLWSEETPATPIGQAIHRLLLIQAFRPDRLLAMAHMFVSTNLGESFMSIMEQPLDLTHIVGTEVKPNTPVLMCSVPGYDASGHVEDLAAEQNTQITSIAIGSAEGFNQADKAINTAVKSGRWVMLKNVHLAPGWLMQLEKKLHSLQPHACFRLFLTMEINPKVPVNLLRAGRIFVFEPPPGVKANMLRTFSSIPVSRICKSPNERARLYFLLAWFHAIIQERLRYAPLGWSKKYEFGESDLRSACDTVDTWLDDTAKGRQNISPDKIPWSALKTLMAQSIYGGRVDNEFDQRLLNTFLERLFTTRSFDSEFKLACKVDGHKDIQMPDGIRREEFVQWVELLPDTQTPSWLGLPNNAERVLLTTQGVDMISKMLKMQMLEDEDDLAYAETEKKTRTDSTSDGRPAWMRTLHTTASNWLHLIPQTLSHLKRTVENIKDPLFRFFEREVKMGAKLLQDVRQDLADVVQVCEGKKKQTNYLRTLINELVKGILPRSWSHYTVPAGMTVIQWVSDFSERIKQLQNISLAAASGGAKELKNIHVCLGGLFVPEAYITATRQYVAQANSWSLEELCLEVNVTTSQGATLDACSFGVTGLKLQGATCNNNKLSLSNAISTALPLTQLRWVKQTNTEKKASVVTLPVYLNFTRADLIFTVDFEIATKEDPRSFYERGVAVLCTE
UniProt Q5JPH6: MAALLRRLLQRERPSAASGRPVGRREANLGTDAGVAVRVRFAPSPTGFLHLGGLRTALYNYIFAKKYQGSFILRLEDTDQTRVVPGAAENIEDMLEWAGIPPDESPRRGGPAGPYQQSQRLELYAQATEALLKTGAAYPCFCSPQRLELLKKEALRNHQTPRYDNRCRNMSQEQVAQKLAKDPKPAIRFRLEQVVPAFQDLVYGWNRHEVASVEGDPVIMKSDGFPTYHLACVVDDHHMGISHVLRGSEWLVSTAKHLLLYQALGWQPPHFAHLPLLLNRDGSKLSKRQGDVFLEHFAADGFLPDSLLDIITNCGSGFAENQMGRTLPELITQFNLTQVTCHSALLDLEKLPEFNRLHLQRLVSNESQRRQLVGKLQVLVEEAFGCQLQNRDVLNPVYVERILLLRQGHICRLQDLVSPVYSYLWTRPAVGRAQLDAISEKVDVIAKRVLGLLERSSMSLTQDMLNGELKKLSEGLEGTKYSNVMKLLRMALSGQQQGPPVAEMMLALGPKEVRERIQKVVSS
UniProt P60981: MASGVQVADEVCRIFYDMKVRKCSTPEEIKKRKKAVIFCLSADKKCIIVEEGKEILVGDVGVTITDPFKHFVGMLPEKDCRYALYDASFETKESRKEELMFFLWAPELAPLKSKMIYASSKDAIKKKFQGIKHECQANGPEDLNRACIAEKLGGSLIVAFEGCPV
UniProt Q6P1R4: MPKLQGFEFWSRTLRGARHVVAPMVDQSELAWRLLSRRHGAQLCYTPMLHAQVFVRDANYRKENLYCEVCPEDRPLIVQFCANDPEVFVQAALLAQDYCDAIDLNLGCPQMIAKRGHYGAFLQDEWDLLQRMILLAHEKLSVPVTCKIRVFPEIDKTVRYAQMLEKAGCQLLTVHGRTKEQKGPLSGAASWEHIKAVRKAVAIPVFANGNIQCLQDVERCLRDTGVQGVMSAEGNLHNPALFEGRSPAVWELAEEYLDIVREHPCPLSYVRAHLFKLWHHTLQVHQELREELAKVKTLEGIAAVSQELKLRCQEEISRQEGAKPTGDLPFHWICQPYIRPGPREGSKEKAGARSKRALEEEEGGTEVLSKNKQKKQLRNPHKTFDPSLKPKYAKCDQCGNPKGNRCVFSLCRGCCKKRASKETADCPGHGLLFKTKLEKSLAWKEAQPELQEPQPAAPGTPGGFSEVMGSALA

compound: Cc1cc(ccc1-c1ccccc1)C(=O)N1CCCN(CC1)C(=O)CCl [compound 10]; assay: probe-labelled cysteine peptide fold change vs DMSO (competition) (log2 fold change); higher = less target engagement (more negative = stronger competition); details: 10 µM; THP-1; incubation time: 4 h
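Also: competitive profiling in live THP-1 cells: cysteine peptides tagged with an iodoacetamide desthiobiotin (IA-DTB) probe, intensity after compound treatment relative to DMSO-treated cells.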

Target | probe-labelled cysteine peptide fold change
ECH1_Q13011_159+171_CPKPVIAAVHGGCIGGGVDLVTACDIR (UniProt Q13011) | 0.0785
E4F1_Q66K89_361_ALAPEPPVSQELPCSSEGSR (UniProt Q66K89) | -0.335
DRAP1_Q14919_73_QCIELEQQFDFLK (UniProt Q14919) | 0.0445
DUSP12_Q9UNI6_115_AVLVHCHAGVSR (UniProt Q9UNI6) | -0.0273
DOK1_Q99704_389_DAWWCQAR (UniProt Q99704) | -0.138
DYNC1H1_Q14204_4121_LHSLQPHACFR (UniProt Q14204) | -0.203
EARS2_Q5JPH6_386_LQVLVEEAFGCQLQNR (UniProt Q5JPH6) | 0.131
DSTN_P60981_135_HECQANGPEDLNR (UniProt P60981) | 0.111
DSTN_P60981_12_ASGVQVADEVCR (UniProt P60981) | 0.0942
DUSP23_Q9BVJ7_108_TGTMLACYLVK (UniProt Q9BVJ7) | 0.275
DYNC1H1_Q14204_2466_CLGSLFSMLHQACR (UniProt Q14204) | 0.0143
DYNC1H1_Q14204_1888_CYLTMTQALEAR (UniProt Q14204) | -0.0386
EAPP_Q56P03_259+262_AETDVEEIYHPVMCTECSTEVAVYDKDEVFHFFNVLASHS (UniProt Q56P03) | 0.253
DOCK11_Q5JSL3_1074_FEFLQTICNHEHYIPLNLPMAFAK (UniProt Q5JSL3) | 0.334
DPP8_Q6V1X1_506_CPIKEEIAITSGEWEVLGR (UniProt Q6V1X1) | -0.17
DUS1L_Q6P1R4_395_CDQCGNPK (UniProt Q6P1R4) | 0.109

Random excerpt: 2 entries already listed, in no set order.
Target | probe-labelled cysteine peptide fold change
DSTN_P60981_135_HECQANGPEDLNR (UniProt P60981) | 0.111
DUS1L_Q6P1R4_395_CDQCGNPK (UniProt Q6P1R4) | 0.109
